The list shows a part of the results, in another mix than the full data.

Sequences of proteins named here, by UniProt entry; tags and fusion partners are left off. A change or cut given only in a name is not applied to a line headed by its entry.
UniProt Q5VT06: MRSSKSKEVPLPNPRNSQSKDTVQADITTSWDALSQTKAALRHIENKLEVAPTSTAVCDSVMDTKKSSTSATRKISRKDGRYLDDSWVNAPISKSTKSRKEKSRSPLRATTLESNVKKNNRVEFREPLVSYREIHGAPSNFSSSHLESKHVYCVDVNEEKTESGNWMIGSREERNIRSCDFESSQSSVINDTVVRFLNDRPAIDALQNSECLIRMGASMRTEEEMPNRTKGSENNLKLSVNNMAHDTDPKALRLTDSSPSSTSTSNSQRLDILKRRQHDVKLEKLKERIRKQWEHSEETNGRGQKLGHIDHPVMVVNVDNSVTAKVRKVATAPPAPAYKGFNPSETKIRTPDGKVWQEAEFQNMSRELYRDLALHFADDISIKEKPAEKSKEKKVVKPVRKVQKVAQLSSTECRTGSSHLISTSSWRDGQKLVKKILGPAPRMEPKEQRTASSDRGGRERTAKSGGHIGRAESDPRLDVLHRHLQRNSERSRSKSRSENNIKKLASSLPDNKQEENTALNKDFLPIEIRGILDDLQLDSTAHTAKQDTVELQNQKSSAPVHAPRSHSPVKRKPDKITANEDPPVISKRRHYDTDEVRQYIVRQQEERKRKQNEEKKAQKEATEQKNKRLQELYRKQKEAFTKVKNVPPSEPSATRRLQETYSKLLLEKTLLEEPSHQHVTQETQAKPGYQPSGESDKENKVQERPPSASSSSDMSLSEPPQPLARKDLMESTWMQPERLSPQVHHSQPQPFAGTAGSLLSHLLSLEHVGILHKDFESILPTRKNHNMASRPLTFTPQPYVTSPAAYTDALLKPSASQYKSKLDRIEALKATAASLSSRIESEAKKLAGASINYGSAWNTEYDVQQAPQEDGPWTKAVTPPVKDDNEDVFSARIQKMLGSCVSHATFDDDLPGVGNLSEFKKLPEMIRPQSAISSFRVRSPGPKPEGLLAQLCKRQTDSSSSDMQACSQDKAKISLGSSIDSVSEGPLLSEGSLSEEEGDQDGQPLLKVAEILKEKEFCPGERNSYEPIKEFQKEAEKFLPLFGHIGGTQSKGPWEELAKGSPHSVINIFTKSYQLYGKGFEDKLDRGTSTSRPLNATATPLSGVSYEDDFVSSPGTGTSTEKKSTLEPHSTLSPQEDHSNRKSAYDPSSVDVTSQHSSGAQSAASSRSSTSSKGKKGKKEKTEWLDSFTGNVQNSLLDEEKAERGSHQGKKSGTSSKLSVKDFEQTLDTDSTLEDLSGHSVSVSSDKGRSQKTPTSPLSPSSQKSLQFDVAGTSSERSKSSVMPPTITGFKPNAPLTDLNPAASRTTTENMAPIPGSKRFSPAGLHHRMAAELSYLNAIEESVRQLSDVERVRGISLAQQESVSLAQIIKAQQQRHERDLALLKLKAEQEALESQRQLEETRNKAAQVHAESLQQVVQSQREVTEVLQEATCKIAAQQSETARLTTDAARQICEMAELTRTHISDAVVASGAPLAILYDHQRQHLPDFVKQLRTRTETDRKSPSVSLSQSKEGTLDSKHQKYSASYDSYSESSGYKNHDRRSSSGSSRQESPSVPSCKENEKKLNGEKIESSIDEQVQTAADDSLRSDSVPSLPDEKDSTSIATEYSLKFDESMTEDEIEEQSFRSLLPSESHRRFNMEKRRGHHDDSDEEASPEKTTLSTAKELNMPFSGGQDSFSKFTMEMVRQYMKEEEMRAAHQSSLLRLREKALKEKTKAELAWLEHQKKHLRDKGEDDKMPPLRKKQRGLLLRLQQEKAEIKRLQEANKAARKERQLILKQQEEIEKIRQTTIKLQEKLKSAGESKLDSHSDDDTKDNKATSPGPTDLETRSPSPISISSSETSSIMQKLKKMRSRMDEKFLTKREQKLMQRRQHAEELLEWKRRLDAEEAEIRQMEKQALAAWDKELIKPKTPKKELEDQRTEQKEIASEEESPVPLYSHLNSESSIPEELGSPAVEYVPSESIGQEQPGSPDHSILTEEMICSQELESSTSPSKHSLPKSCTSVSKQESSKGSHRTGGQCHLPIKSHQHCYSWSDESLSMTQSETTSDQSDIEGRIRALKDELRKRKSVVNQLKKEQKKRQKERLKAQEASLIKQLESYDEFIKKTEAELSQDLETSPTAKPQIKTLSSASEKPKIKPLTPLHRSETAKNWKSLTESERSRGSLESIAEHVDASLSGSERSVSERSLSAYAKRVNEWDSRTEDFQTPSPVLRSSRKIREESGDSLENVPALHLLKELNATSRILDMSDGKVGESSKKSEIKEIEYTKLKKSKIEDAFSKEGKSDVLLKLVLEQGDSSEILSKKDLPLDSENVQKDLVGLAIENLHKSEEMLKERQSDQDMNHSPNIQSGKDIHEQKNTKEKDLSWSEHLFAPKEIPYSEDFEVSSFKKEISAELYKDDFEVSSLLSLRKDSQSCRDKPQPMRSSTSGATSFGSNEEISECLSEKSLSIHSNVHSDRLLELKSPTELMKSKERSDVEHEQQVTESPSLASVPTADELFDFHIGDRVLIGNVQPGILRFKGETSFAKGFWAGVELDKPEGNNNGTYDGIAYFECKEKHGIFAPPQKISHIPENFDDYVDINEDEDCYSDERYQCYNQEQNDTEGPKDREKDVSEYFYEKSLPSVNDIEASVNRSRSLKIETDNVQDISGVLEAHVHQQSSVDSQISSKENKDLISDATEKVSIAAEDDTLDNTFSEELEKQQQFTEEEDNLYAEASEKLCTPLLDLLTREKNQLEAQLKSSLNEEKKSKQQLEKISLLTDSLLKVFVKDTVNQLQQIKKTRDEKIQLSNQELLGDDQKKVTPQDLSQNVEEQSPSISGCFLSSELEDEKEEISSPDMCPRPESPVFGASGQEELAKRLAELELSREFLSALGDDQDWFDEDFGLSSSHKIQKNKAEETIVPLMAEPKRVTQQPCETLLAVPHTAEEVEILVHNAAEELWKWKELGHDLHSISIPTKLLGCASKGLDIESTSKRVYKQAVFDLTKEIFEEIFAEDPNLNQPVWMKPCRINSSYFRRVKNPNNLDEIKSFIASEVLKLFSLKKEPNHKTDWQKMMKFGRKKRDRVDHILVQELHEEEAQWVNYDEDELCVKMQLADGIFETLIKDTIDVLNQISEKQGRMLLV
UniProt Q6P2I3: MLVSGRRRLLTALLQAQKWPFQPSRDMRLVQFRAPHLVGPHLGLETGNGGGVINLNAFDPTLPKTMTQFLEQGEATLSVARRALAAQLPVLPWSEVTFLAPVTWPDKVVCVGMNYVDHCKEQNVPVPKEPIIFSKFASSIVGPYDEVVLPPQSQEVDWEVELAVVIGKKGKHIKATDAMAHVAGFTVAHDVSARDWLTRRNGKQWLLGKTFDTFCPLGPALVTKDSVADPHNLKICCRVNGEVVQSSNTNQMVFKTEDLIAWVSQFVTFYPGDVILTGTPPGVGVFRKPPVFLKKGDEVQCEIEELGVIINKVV
UniProt Q5SRE5: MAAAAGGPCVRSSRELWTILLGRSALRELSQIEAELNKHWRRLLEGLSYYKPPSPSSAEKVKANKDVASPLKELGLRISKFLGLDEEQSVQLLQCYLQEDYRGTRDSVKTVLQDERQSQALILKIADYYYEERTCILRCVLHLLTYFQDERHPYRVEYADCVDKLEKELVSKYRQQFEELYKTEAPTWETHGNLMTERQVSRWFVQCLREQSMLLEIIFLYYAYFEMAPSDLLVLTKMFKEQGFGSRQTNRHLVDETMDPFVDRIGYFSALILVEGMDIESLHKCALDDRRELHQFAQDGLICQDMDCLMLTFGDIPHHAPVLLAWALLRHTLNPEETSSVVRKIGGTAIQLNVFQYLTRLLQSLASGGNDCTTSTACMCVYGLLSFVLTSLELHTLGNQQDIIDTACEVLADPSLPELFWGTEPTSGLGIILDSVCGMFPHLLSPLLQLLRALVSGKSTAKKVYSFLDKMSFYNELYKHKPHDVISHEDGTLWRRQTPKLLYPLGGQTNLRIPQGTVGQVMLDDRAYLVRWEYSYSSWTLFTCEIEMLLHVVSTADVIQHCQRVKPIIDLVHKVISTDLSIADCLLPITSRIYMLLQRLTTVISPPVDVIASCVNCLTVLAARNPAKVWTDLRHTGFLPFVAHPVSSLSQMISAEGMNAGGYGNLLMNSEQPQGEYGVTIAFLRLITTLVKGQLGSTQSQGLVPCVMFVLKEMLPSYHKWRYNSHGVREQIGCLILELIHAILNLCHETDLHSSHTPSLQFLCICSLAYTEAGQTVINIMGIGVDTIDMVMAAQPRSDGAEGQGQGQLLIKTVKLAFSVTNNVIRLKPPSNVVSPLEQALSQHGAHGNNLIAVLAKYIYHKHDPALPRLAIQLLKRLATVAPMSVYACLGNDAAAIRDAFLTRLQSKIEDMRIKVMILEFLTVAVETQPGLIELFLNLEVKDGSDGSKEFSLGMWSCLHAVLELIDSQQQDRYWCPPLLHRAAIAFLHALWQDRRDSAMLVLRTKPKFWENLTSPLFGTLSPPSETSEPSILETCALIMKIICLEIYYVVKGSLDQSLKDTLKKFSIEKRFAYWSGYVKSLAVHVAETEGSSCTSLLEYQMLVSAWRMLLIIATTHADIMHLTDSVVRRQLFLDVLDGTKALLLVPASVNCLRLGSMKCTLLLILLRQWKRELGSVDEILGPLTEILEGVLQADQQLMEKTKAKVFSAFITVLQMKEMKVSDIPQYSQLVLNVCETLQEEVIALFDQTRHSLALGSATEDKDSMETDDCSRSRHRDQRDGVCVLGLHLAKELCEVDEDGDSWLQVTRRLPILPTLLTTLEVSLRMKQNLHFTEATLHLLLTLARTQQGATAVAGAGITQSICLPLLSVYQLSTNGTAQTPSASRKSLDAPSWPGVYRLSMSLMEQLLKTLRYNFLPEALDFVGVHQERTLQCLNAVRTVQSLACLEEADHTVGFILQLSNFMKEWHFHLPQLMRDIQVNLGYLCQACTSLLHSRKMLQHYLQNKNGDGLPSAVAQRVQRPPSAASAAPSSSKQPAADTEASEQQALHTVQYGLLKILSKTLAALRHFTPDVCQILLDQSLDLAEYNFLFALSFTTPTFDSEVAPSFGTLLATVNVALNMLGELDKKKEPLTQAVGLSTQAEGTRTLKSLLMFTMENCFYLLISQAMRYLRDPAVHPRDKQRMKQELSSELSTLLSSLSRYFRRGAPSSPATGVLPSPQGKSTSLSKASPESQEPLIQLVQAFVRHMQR
UniProt Q6PIW4: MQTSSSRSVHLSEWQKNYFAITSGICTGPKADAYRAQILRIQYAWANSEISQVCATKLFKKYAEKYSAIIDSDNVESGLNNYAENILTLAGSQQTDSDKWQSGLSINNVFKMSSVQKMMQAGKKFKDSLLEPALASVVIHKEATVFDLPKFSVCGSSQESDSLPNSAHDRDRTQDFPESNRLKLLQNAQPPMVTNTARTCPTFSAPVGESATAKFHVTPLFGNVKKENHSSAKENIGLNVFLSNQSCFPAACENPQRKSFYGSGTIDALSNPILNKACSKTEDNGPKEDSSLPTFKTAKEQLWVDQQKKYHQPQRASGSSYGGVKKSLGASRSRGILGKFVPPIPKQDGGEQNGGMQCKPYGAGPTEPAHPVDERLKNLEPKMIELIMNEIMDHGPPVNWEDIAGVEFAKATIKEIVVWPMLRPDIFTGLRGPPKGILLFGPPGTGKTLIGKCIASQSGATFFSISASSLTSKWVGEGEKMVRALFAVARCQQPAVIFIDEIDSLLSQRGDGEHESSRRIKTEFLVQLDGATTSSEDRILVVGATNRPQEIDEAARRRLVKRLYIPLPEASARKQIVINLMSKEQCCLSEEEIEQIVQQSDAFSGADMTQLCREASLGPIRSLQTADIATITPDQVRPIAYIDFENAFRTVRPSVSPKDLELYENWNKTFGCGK
UniProt Q5VV42: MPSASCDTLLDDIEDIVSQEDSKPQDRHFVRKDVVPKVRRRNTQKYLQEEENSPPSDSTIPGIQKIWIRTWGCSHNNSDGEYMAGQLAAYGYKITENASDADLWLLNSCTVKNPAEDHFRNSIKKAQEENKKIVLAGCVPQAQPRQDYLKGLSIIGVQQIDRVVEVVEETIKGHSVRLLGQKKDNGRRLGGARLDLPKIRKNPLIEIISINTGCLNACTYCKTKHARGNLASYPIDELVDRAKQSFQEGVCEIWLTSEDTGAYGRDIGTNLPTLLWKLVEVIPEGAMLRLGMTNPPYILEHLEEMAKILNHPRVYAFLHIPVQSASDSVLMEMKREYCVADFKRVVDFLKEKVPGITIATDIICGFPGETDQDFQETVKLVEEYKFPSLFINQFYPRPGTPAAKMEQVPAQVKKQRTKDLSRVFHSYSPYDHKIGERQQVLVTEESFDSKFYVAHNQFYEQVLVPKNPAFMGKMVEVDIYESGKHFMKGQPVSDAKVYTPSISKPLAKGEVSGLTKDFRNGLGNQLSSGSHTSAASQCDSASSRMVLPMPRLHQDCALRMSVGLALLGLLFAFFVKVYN

These results are taken from the supplement of paper PMC11006884.

Compound in the experiment: COC(=O)C#Cc1ccccc1 [methyl 3-phenylpropiolate]
Description: log2 ratio of iodoacetamide-alkyne labeling of the cysteine site, DMSO over compound (competition); higher = stronger covalent engagement of the cysteine by the compound, active = 1 or more. The note with it: 500 µM; treatment time 1 h; system: HEK293T cell lysate. The method in brief: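 The log2 competition ratio per cysteine is defined as mean reporter intensity in control channels over mean reporter intensity in compound channels. Lysate from HEK293T cells (2 mg/mL) received electrophile (500 µM) or vehicle for 1 h at ambient temperature, followed by iodoacetamide alkyne for 1 h. Samples were clicked to sCIP-TMT reagents, pooled, trypsin-digested overnight at 37 °C, streptavidin-enriched, acid-eluted and run on Orbitrap Eclipse LC-MS/MS with FAIMS, with quantification in FragPipe. Three replicates with duplicate channels were used, and any cysteine quantified in only one replicate was excluded.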
Turning to NT5DC1 C63 (UniProt Q5TFE4), the “log2 ratio of iodoacetamide-alkyne labeling” value (“log2 ratio” for short) is inactive: 0.408.
On to C15orf39 C367 (UniProt Q6ZRI6), for which the “log2 ratio” value was active: 1.32.
FNBP1L C69 (UniProt Q5T0N5): the “log2 ratio” value is inactive: 0.181.
Regarding ARID2 C1512 (UniProt Q68CP9), the “log2 ratio” value was inactive: 0.438.
In the case of CEP350 C179 (UniProt Q5VT06), the “log2 ratio” value is inactive: 0.791.
As for RPRD2 C1071 (UniProt Q5VT52), the “log2 ratio” value is inactive: -0.00937.
Consider DENND4C C1105 (UniProt Q5VZ89), for which the “log2 ratio” value is inactive: 0.64.
Take FAHD2B C301 (UniProt Q6P2I3): the “log2 ratio” value is inactive: -0.114.
As to RAB11FIP1 C1192 (UniProt Q6WKZ4), the “log2 ratio” value is inactive: 0.324.
Take PITRM1 C241 (UniProt Q5JRX3): the “log2 ratio” value is inactive: 0.147.
In the case of SNAP47 C369 (UniProt Q5SQN1), the “log2 ratio” value was inactive: 0.693.
Turning to ANKRD54 C185 (UniProt Q6NXT1), the “log2 ratio” value was inactive: 0.189.
Turning to C19orf54 C226 (UniProt Q5BKX5), the “log2 ratio” value was inactive: 0.201.
As for NUP188 C1294 (UniProt Q5SRE5), the figure is inactive: 0.463; as for SRCAP C2246 (UniProt Q6ZRS2), inactive: 0.365.
As to UniProt Q5T280_C239, the “log2 ratio” value is inactive: 0.16.
For FIGNL1 C200 (UniProt Q6PIW4), the “log2 ratio” value is active: 1.08.
Regarding SLC25A24 C330 (UniProt Q6NUK1), the “log2 ratio” value was inactive: 0.223.
To MAP1S C342 (UniProt Q66K74) belongs inactive: 0.18; to ARID2 C1319 (UniProt Q68CP9), inactive: 0.463.
Take CDKAL1 C538 (UniProt Q5VV42): the “log2 ratio” value was inactive: 0.579.
